In paper PMC11134608, “UBR5 forms ligand-dependent complexes on chromatin to regulate nuclear hormone receptor stability” (Molecular cell, 2023):
These are yes or no findings as the source states them, for the method shown. For part of these data: Binding seen in cells or lysates may run through a third protein. Some results given as binding are weak or reduced against the parent protein; the word gives no strength.

The chains behind the UniProt entries cited, without tags or fusion partners. Where a name states a change or a piece, a line headed by the entry shows the natural chain unless it says otherwise.
UniProt O95071: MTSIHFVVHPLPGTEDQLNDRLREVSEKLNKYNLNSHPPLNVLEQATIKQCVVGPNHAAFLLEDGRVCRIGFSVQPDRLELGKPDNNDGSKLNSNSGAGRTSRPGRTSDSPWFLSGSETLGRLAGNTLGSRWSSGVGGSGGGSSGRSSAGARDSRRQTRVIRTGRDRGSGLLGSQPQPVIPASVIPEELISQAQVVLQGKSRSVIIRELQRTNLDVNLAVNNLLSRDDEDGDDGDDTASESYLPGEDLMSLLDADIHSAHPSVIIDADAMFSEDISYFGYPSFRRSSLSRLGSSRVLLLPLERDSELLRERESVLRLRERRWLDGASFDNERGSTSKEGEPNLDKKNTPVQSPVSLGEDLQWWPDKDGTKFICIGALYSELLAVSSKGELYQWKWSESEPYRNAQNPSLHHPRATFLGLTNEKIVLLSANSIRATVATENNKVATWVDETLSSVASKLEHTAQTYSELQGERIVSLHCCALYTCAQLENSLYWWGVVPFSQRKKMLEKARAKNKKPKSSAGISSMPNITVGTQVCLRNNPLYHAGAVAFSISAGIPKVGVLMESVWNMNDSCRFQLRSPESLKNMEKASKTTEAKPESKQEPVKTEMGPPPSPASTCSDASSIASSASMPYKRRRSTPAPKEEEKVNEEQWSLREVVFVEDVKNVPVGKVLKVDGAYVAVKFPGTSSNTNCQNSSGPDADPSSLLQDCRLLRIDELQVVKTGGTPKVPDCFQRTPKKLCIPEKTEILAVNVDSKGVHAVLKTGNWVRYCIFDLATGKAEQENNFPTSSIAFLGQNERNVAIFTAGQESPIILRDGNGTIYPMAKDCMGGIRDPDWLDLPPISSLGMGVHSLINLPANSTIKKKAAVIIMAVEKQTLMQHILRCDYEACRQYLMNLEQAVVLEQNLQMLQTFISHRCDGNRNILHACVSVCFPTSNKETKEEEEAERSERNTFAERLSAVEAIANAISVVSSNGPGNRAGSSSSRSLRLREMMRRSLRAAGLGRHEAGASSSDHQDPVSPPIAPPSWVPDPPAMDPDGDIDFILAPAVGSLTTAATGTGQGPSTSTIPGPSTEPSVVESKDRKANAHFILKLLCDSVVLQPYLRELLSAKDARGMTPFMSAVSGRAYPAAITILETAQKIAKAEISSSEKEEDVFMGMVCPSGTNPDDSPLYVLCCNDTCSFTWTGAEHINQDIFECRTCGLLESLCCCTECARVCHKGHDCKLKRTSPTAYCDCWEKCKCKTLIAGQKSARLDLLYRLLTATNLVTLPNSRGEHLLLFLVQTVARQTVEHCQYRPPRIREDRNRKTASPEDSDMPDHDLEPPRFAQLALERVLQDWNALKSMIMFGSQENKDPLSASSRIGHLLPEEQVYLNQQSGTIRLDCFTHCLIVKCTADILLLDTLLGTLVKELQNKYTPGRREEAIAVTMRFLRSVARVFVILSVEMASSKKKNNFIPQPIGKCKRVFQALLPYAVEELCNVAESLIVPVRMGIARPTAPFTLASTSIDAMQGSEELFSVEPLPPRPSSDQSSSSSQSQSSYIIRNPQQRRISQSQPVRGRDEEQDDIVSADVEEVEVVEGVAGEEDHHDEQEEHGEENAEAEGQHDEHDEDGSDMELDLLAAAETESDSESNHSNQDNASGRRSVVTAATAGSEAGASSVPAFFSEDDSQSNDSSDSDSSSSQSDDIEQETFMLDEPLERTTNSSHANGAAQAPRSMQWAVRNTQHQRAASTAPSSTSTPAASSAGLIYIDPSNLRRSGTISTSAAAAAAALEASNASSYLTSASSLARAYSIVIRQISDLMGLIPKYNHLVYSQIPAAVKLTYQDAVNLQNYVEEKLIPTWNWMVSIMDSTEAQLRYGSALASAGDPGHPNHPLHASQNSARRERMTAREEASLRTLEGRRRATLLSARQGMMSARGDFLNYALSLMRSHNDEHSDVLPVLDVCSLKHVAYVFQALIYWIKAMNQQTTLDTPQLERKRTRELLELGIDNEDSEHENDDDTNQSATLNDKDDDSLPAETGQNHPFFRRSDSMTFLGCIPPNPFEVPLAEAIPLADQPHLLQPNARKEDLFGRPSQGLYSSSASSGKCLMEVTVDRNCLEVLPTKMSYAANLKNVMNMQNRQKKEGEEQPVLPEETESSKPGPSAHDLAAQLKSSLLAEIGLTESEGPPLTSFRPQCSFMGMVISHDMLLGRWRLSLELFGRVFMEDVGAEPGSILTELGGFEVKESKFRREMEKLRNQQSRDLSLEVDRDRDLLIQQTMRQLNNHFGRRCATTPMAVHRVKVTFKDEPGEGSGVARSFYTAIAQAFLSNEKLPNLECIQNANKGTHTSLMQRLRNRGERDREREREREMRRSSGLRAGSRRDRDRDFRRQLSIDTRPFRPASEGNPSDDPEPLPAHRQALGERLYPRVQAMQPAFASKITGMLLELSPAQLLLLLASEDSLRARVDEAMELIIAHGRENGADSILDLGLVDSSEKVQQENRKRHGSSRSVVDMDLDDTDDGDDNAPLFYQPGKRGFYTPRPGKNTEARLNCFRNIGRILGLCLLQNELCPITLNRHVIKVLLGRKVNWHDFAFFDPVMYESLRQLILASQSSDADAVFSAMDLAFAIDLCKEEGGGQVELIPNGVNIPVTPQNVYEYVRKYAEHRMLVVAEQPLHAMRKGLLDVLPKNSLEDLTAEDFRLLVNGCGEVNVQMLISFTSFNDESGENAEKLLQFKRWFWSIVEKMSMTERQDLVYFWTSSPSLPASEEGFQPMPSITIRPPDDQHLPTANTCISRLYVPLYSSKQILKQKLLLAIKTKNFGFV
UniProt P03372: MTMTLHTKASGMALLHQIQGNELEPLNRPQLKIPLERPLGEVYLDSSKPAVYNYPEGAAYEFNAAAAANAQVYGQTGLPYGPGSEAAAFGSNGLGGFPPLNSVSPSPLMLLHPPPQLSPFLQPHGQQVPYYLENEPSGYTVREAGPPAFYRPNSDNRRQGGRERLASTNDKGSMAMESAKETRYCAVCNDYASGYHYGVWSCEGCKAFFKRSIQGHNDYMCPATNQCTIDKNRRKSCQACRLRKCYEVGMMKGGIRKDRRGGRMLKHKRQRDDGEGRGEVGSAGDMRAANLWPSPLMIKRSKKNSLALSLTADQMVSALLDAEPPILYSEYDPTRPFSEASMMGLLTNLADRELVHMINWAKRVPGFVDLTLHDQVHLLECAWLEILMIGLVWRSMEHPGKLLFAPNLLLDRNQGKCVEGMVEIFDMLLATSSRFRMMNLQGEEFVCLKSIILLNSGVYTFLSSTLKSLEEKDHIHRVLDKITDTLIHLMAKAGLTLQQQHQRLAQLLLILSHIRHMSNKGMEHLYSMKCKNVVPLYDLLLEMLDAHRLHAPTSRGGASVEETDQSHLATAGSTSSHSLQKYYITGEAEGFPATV
UniProt P04150: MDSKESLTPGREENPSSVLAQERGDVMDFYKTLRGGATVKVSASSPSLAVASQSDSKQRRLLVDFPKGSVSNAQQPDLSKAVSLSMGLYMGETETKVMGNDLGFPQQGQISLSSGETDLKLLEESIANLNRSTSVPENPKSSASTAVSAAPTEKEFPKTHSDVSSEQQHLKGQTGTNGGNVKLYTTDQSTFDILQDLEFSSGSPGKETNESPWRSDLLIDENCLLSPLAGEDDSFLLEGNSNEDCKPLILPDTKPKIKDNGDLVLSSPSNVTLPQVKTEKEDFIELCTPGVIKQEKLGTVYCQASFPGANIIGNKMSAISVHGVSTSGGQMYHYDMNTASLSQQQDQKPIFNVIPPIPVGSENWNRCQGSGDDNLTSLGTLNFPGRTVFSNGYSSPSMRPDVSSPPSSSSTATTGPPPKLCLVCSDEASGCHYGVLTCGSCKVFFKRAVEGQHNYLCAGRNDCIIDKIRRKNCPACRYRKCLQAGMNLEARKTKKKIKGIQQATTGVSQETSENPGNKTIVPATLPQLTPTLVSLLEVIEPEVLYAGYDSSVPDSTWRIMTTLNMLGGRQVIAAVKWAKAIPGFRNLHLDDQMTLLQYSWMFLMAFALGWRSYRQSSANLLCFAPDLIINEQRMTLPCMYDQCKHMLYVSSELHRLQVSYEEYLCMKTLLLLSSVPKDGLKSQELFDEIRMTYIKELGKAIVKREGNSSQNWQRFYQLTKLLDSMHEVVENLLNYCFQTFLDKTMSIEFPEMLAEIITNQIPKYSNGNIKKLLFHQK

Tests used:
[1] = biological target: Full-length human FLAG-UBR5 (human) (UniProt O95071); test: pull-down; as a1 but with 50 μM fulvestrant; both purified
[2] = biological target: ER-eGFP reporter (UniProt P03372); test: co-IP; reporter cells treated with ligand (ATRA, dexamethasone, AR agonist, brilanestrant) for different times; Pierce IP Lysis Buffer with ligand; GFP-Trap Magnetic Agarose beads overnight at 4°C; western blot
[3] = biological target: eGFP-GR reporter (UniProt P04150); test: as above

binding [2] | binding [3] | Substance | binding [1]
 |  | His-tagged ER ligand-binding domain (aa301-552) (from UniProt P03372 301-552) (domain or fragment) | no binding (condition: with 50 μM fulvestrant)
binds | binds | UBR5 (endogenous, in reporter cell lysates) (from UniProt O95071 1-2799) (enzyme) | 
